This note sets out measurements from patent US20030104377.

By UniProt entry, the sequences of proteins in these tests, tags left out. Residues count along the entry.
UniProt P24821, 23-2201: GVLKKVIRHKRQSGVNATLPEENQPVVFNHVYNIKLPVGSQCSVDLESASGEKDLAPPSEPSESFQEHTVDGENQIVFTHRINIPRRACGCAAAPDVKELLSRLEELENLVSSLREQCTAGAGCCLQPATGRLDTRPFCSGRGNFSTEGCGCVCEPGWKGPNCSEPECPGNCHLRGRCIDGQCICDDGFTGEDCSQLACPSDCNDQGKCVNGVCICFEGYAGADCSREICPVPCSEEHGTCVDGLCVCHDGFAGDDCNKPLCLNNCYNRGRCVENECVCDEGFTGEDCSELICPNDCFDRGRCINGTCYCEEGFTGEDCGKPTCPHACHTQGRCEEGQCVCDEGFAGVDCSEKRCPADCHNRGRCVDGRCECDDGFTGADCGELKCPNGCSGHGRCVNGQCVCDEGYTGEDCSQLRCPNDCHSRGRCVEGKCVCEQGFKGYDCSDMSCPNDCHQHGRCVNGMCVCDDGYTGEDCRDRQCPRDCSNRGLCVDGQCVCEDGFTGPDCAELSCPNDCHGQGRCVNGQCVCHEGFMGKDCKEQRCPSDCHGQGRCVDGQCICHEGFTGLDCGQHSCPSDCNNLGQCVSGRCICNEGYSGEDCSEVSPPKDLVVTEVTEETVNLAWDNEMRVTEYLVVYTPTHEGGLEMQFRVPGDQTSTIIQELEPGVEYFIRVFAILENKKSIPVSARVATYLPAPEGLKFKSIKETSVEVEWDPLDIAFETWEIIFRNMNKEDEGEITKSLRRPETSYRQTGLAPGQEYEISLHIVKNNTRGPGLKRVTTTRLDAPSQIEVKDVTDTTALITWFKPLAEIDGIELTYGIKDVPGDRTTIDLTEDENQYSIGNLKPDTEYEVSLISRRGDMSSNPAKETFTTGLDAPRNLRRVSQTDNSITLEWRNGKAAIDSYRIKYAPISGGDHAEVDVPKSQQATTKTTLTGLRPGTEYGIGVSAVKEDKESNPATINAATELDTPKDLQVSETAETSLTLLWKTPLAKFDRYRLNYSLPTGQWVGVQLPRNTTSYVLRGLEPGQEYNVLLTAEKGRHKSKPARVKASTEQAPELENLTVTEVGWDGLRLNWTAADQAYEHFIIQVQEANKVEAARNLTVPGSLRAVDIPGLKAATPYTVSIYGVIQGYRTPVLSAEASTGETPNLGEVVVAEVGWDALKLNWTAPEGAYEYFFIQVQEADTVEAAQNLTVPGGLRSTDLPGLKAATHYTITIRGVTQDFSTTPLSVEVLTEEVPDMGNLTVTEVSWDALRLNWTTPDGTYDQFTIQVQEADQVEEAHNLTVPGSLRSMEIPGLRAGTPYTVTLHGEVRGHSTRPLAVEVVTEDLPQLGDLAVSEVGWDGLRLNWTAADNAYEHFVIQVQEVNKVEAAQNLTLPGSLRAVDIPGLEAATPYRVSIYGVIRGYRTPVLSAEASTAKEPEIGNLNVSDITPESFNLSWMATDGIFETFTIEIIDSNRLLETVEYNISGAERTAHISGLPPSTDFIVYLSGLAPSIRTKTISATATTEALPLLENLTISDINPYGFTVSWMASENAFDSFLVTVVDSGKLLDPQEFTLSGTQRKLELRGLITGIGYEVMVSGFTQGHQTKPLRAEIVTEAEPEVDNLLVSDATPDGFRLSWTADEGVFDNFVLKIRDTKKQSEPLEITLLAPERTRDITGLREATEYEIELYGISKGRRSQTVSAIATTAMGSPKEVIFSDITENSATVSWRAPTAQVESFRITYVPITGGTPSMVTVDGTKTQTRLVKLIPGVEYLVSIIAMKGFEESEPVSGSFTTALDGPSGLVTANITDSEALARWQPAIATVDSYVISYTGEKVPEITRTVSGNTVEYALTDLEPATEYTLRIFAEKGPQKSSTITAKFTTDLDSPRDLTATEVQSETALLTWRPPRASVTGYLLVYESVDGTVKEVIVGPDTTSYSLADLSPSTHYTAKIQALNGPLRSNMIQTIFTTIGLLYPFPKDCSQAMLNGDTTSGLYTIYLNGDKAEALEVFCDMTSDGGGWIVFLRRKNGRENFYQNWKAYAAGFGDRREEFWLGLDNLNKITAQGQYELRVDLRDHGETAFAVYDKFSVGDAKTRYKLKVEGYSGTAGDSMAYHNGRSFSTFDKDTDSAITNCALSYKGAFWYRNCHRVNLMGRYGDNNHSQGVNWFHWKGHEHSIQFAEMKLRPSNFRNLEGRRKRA

A negative result means that nothing was seen under these conditions. For at least one entry, the source does not settle the construct or the ends of the probe.

This data set addresses Tenascin-C (Homo sapiens) (UniProt P24821). The data set is described as follows: filter binding. Conditions: protein details: Chemicon (Temecula, CA).

A word on the Kd: it is the concentration at which binding is half-saturated.

In turn, “GGGAGGACGAUGCGGAACAAUGCACUCGUCGCCGUAAUGGAUGUUUUGCU [TN9.3]” showed a Kd (2'-F C and U, 3'-3' cap, variant of TN9) greater than 10 µM.

Regarding “GGGAGGACGAUGCGGAAGUUUAGUGCUCCAGUUCCGACACUCCUCUACUCAGCCCCAGACGACUCGCCCGA [TN1]”, the Kd (2'-F C and U, orphan) is greater than 10 µM.

Consider “GGGAGGACGAUGCGGAACAAUGCACUCGUCGCCGUAAUGGAUGUUUUGCUCCCUG [TN9.4M4]”, for which, for the setting “2'-F C and U, 2'-OMe G28,G31,G34, 3'-3' cap, variant of TN9.4”, the binding result was “no binding”.

Regarding “GGGAGGACGAUGCGGAUAAUUCGACACCAACCAGGUCCCGGAAAUCAUCCCUCUGCAGACGACUCGCCCGA [TN8]”, the Kd (2'-F C and U, orphan) was greater than 10 µM.

As to “GGGAGGACGCGUCGCCGUAAUGGAUGUUUUGCUCCCUG [TTA1-Red]”, the Kd (as TTA1, 5' amine conjugated to Rhodamine-Red-X [(CH2CH2O)6 spacer between 9 and 10 (left out), 2'-F: 8,10,12,13,15,16,18,21,25,27-30,32-37, 2'-OMe: 2-7,19,20,22-24,26,31,38, 2'-OH G: 1,9,11,14,17, 5' amine-Rhodamine-Red-X, 3'-3' dT cap (left out)], identical affinity to TTA1, label: Rhodamine-Red-X 5', letters built from the parent sequence and the stated change, variant of TTA1) was 0.005 µM.
